Reference: PubChem BioAssay AID1259254 (NCATS, 2017)

Purpose: 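Finding genes that stop cells copying their DNA twice in one cycle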 (primary screen)
Cell system: human HCT116 colorectal cancer cells
Reagents: single siRNA against human genes
Timing: 3 days
Detection: 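Nuclei stained with Hoechst and imaged; cell-cycle phase assigned by DNA content; G2 share scaled per plate, non-targeting siRNA 0%, GMNN siRNA 100%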
Direction: G2 robust z-score and G2 cells, % of GMNN control: higher = more G2 cells, more excess DNA replication; raw share of cells in G2: higher = larger share of cells with G2 DNA content
Rule for the call: 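An siRNA counts as active if its G2 robust z-score lies at least 5 MADs above the screen median; here such calls match roughly 38% of GMNN control or more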
Shown is one part, drawn at random, of about 59,000 deposited reagents. Over the whole deposit, about 1,550 (2.6%) got an active call. 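G2 share is only a proxy for re-replication; each gene was hit by three separate siRNAs, and active genes were retested.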 The raw values are shown without normalisation. The numbers tell different reagents against one gene apart. No sequences are given here. Not stated in the record: the amount of reagent.

gene knocked down | reagent no. | G2 robust z-score | G2 cells, % of GMNN control | raw share of cells in G2 (%) | Outcome
ATXN7L1 (ataxin 7 like 1) | 1 | 0.68 | 7.75 | 5.67 | inactive
ATXN7L1 (ataxin 7 like 1) | 2 | -0.939 | -3.64 | 2.26 | inactive
ATXN7L1 (ataxin 7 like 1) | 3 | -0.657 | -1.66 | 2.56 | inactive
LINC02906 (long independently transcribed non-coding RNA 2906) | 1 | 2.07 | 17.5 | 9.78 | inactive
LINC02906 (long independently transcribed non-coding RNA 2906) | 2 | 0.239 | 4.65 | 5.43 | inactive
LINC02906 (long independently transcribed non-coding RNA 2906) | 3 | 1.42 | 12.9 | 10.2 | inactive
CLEC16A (C-type lectin domain containing 16A) | 1 | -0.76 | -2.38 | 3.52 | inactive
CLEC16A (C-type lectin domain containing 16A) | 2 | 0.185 | 4.27 | 5.79 | inactive
CLEC16A (C-type lectin domain containing 16A) | 3 | 0.317 | 5.19 | 5.11 | inactive
BMX (BMX non-receptor tyrosine kinase) | 1 | 0.526 | 6.67 | 7.81 | inactive
BMX (BMX non-receptor tyrosine kinase) | 2 | -1.12 | -4.93 | 3.75 | inactive
BMX (BMX non-receptor tyrosine kinase) | 3 | -0.219 | 1.43 | 4.53 | inactive
TSKS (testis specific serine kinase substrate) | 1 | 3.24 | 25.8 | 13.6 | inactive
TSKS (testis specific serine kinase substrate) | 2 | 1.72 | 15.1 | 10.7 | inactive
TSKS (testis specific serine kinase substrate) | 3 | -0.274 | 1.04 | 4.02 | inactive
TRAF1 (TNF receptor associated factor 1) | 1 | 0.592 | 7.13 | 8.61 | inactive
TRAF1 (TNF receptor associated factor 1) | 2 | -0.399 | 0.158 | 4.32 | inactive
TRAF1 (TNF receptor associated factor 1) | 3 | -0.449 | -0.19 | 4.41 | inactive
OR10A5 (olfactory receptor family 10 subfamily A member 5) | 1 | 0.793 | 8.55 | 6.69 | inactive
OR10A5 (olfactory receptor family 10 subfamily A member 5) | 2 | 2.77 | 22.5 | 9.85 | inactive
OR10A5 (olfactory receptor family 10 subfamily A member 5) | 3 | 0.506 | 6.52 | 5.34 | inactive
HDGF (heparin binding growth factor) | 1 | 0.617 | 7.31 | 8.73 | inactive
HDGF (heparin binding growth factor) | 2 | 2.03 | 17.2 | 10.4 | inactive
HDGF (heparin binding growth factor) | 3 | 0.968 | 9.78 | 7.35 | inactive
FSTL5 (follistatin like 5) | 1 | -0.433 | -0.0817 | 2.76 | inactive
FSTL5 (follistatin like 5) | 2 | -0.331 | 0.639 | 6.2 | inactive
FSTL5 (follistatin like 5) | 3 | -0.326 | 0.676 | 3.84 | inactive
SPSB4 (splA/ryanodine receptor domain and SOCS box containing 4) | 1 | 0.336 | 5.33 | 6.35 | inactive
SPSB4 (splA/ryanodine receptor domain and SOCS box containing 4) | 2 | 0.217 | 4.49 | 4.41 | inactive
SPSB4 (splA/ryanodine receptor domain and SOCS box containing 4) | 3 | 0.362 | 5.51 | 4.67 | inactive
ARK2C | 1 | 1.65 | 14.6 | 9.25 | inactive
ARK2C | 2 | -0.428 | -0.0474 | 3.4 | inactive
ARK2C | 3 | -0.363 | 0.41 | 3.26 | inactive
GOSR1 (golgi SNAP receptor complex member 1) | 1 | 1.79 | 15.5 | 12.9 | inactive
GOSR1 (golgi SNAP receptor complex member 1) | 2 | 1.51 | 13.6 | 9.03 | inactive
GOSR1 (golgi SNAP receptor complex member 1) | 3 | -0.973 | -3.88 | 2.24 | inactive
RUNX1T1 (RUNX1 partner transcriptional co-repressor 1) | 1 | 0.0732 | 3.48 | 4.84 | inactive
RUNX1T1 (RUNX1 partner transcriptional co-repressor 1) | 2 | -0.896 | -3.34 | 3.28 | inactive
RUNX1T1 (RUNX1 partner transcriptional co-repressor 1) | 3 | 0.818 | 8.72 | 6.27 | inactive
SI (sucrase-isomaltase) | 1 | -0.699 | -1.95 | 5.03 | inactive
SI (sucrase-isomaltase) | 2 | -0.173 | 1.75 | 5.15 | inactive
SI (sucrase-isomaltase) | 3 | -0.186 | 1.66 | 4.51 | inactive

7 neighbouring entries from above, quoted:
gene knocked down | reagent no. | G2 robust z-score | G2 cells, % of GMNN control | raw share of cells in G2 (%) | Outcome
BMX (BMX non-receptor tyrosine kinase) | 1 | 0.526 | 6.67 | 7.81 | inactive
BMX (BMX non-receptor tyrosine kinase) | 2 | -1.12 | -4.93 | 3.75 | inactive
BMX (BMX non-receptor tyrosine kinase) | 3 | -0.219 | 1.43 | 4.53 | inactive
TSKS (testis specific serine kinase substrate) | 1 | 3.24 | 25.8 | 13.6 | inactive
TSKS (testis specific serine kinase substrate) | 2 | 1.72 | 15.1 | 10.7 | inactive
TSKS (testis specific serine kinase substrate) | 3 | -0.274 | 1.04 | 4.02 | inactive
TRAF1 (TNF receptor associated factor 1) | 1 | 0.592 | 7.13 | 8.61 | inactive

More reagents follow:
gene knocked down | reagent no. | G2 robust z-score | G2 cells, % of GMNN control | raw share of cells in G2 (%) | Outcome
STX19 (syntaxin 19) | 1 | -0.53 | -0.763 | 2.83 | inactive
STX19 (syntaxin 19) | 2 | -0.0802 | 2.4 | 4 | inactive
STX19 (syntaxin 19) | 3 | -1.05 | -4.4 | 1.98 | inactive
TAS1R2 (taste 1 receptor member 2) | 1 | 1.75 | 15.3 | 10.8 | inactive
TAS1R2 (taste 1 receptor member 2) | 2 | -0.741 | -2.25 | 3.32 | inactive
TAS1R2 (taste 1 receptor member 2) | 3 | -0.475 | -0.377 | 2.27 | inactive
LAIR2 (leukocyte associated immunoglobulin like receptor 2) | 1 | -0.227 | 1.37 | 3.65 | inactive
LAIR2 (leukocyte associated immunoglobulin like receptor 2) | 2 | -1.42 | -6.99 | 2.7 | inactive
LAIR2 (leukocyte associated immunoglobulin like receptor 2) | 3 | 1.31 | 12.2 | 10.1 | inactive
RAB3IL1 (RAB3A interacting protein like 1) | 1 | 0.913 | 9.39 | 8.97 | inactive
RAB3IL1 (RAB3A interacting protein like 1) | 2 | -0.563 | -0.993 | 3.83 | inactive
RAB3IL1 (RAB3A interacting protein like 1) | 3 | -1.19 | -5.39 | 1.41 | inactive
PSEN2 (presenilin 2) | 1 | -0.0523 | 2.6 | 6.47 | inactive
PSEN2 (presenilin 2) | 2 | -0.996 | -4.04 | 3.48 | inactive
PSEN2 (presenilin 2) | 3 | 0.016 | 3.08 | 5.06 | inactive
PLPBP (pyridoxal phosphate binding protein) | 1 | -0.275 | 1.03 | 3.87 | inactive
PLPBP (pyridoxal phosphate binding protein) | 2 | -1.08 | -4.61 | 3.93 | inactive
PLPBP (pyridoxal phosphate binding protein) | 3 | 1.28 | 12 | 8.35 | inactive
IL36A (interleukin 36 alpha) | 1 | -0.0811 | 2.4 | 4.77 | inactive
IL36A (interleukin 36 alpha) | 2 | 1.11 | 10.8 | 8.63 | inactive
IL36A (interleukin 36 alpha) | 3 | 3.3 | 26.2 | 11.5 | inactive
PPP1R13L (protein phosphatase 1 regulatory subunit 13 like) | 1 | 1.75 | 15.3 | 8.9 | inactive
PPP1R13L (protein phosphatase 1 regulatory subunit 13 like) | 2 | 2.34 | 19.4 | 12.6 | inactive
PPP1R13L (protein phosphatase 1 regulatory subunit 13 like) | 3 | -0.325 | 0.682 | 4.42 | inactive
PCSK2 (proprotein convertase subtilisin/kexin type 2) | 1 | 0.943 | 9.6 | 7.2 | inactive
PCSK2 (proprotein convertase subtilisin/kexin type 2) | 2 | 1.31 | 12.2 | 7.16 | inactive
PCSK2 (proprotein convertase subtilisin/kexin type 2) | 3 | -1.04 | -4.32 | 3.39 | inactive
